Test results: the supplement of paper PMC10849652
The other results are listed elsewhere or left out.

Amino acid sequences for entries named in this document (tags omitted). A change or cut given only in a name is not applied to a line headed by its entry.
UniProt Q9ULK4: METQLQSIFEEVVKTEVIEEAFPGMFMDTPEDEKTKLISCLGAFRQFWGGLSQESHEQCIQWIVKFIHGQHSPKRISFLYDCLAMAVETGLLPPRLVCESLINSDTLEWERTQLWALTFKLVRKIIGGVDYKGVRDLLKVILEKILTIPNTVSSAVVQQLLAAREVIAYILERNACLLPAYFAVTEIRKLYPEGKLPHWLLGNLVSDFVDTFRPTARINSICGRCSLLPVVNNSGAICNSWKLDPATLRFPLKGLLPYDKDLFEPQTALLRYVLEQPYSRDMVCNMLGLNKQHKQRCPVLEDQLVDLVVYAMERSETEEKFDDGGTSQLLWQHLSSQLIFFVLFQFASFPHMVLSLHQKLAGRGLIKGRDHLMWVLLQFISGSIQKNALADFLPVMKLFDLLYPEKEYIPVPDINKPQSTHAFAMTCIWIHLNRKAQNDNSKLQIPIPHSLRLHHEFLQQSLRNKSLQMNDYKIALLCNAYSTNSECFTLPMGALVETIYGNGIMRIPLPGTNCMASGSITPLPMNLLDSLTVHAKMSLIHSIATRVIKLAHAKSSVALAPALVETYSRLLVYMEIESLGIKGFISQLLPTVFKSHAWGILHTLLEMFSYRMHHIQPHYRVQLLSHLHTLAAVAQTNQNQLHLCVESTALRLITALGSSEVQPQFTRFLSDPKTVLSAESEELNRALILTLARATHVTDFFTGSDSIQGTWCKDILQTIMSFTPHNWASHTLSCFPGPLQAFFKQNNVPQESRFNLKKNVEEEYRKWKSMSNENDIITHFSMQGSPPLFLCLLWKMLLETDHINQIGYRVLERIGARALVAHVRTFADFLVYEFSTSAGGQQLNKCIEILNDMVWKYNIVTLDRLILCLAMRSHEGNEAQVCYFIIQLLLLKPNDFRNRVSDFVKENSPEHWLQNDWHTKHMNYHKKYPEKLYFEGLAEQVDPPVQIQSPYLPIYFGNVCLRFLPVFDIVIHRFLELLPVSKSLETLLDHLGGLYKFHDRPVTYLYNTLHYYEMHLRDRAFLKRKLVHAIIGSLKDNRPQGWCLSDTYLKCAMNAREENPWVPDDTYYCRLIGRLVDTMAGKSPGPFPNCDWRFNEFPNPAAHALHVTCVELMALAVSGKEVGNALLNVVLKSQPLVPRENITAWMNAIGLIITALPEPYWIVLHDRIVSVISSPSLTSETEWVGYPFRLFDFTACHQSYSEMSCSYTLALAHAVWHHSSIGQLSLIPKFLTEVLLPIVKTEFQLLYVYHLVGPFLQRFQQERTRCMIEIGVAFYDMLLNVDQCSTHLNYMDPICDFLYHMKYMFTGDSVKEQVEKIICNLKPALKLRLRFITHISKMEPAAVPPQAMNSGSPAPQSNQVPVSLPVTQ
UniProt Q96HR3: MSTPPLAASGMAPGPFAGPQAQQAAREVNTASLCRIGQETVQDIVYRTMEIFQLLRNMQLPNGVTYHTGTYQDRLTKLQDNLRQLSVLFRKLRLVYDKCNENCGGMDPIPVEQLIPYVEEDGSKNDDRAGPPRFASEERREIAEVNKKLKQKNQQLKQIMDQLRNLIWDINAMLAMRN
UniProt P50579: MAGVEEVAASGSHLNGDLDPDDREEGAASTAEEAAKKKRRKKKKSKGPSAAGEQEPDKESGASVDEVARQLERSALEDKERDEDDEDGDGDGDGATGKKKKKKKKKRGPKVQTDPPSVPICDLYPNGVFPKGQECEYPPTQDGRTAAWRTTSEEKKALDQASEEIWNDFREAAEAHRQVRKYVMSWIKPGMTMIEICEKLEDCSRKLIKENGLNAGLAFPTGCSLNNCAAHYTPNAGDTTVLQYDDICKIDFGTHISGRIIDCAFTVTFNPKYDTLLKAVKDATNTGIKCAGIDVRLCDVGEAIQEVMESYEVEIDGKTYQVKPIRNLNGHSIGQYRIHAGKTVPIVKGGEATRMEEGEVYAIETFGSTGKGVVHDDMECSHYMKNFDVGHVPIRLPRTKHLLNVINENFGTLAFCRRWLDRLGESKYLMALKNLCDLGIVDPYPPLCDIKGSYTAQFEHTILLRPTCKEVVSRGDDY
UniProt Q71SY5: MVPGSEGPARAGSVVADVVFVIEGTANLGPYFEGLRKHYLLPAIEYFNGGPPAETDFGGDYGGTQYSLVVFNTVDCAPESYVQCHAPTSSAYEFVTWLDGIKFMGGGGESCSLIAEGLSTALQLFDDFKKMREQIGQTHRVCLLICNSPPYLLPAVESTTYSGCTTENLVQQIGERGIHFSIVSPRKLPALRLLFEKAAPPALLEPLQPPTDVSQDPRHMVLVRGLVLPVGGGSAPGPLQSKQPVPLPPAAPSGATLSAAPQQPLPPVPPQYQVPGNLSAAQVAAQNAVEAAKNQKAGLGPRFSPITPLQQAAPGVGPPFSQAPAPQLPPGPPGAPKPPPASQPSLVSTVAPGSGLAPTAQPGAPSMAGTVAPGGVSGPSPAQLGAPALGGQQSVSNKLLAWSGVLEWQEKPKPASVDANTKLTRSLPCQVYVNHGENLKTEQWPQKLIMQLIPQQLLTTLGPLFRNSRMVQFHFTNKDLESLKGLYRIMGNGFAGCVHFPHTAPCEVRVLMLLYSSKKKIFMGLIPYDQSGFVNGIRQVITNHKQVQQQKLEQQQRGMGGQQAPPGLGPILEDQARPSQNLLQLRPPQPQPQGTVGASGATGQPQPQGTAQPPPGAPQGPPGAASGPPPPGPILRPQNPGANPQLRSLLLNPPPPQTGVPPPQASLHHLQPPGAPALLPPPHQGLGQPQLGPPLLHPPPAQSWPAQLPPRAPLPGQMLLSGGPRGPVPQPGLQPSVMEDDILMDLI
UniProt O43934: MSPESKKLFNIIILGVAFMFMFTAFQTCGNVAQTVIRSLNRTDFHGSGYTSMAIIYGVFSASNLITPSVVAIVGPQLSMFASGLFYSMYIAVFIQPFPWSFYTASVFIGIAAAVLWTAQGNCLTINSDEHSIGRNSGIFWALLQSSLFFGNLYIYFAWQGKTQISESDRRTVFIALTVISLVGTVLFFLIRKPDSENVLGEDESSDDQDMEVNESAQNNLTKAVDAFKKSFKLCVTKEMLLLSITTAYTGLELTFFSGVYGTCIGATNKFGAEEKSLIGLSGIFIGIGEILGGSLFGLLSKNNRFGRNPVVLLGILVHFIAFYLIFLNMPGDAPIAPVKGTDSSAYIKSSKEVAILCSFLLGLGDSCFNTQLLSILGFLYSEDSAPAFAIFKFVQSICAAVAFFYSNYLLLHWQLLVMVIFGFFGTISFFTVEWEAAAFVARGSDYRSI
UniProt P10620: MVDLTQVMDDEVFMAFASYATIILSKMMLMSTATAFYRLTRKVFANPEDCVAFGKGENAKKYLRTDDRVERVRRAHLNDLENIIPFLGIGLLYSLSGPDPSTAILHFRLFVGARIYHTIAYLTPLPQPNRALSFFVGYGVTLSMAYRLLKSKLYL
UniProt O14880: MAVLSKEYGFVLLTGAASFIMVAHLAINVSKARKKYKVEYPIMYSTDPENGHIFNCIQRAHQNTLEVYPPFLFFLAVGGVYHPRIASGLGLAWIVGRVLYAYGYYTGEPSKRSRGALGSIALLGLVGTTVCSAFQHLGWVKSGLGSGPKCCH
UniProt Q9UBP6: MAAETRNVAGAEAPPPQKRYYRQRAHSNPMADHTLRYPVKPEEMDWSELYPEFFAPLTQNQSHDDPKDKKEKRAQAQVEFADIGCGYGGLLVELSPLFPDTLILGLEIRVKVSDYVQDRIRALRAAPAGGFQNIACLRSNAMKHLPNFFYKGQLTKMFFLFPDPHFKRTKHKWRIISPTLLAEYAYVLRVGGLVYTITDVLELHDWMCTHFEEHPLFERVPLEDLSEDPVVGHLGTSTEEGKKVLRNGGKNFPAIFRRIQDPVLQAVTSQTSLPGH
UniProt O15021: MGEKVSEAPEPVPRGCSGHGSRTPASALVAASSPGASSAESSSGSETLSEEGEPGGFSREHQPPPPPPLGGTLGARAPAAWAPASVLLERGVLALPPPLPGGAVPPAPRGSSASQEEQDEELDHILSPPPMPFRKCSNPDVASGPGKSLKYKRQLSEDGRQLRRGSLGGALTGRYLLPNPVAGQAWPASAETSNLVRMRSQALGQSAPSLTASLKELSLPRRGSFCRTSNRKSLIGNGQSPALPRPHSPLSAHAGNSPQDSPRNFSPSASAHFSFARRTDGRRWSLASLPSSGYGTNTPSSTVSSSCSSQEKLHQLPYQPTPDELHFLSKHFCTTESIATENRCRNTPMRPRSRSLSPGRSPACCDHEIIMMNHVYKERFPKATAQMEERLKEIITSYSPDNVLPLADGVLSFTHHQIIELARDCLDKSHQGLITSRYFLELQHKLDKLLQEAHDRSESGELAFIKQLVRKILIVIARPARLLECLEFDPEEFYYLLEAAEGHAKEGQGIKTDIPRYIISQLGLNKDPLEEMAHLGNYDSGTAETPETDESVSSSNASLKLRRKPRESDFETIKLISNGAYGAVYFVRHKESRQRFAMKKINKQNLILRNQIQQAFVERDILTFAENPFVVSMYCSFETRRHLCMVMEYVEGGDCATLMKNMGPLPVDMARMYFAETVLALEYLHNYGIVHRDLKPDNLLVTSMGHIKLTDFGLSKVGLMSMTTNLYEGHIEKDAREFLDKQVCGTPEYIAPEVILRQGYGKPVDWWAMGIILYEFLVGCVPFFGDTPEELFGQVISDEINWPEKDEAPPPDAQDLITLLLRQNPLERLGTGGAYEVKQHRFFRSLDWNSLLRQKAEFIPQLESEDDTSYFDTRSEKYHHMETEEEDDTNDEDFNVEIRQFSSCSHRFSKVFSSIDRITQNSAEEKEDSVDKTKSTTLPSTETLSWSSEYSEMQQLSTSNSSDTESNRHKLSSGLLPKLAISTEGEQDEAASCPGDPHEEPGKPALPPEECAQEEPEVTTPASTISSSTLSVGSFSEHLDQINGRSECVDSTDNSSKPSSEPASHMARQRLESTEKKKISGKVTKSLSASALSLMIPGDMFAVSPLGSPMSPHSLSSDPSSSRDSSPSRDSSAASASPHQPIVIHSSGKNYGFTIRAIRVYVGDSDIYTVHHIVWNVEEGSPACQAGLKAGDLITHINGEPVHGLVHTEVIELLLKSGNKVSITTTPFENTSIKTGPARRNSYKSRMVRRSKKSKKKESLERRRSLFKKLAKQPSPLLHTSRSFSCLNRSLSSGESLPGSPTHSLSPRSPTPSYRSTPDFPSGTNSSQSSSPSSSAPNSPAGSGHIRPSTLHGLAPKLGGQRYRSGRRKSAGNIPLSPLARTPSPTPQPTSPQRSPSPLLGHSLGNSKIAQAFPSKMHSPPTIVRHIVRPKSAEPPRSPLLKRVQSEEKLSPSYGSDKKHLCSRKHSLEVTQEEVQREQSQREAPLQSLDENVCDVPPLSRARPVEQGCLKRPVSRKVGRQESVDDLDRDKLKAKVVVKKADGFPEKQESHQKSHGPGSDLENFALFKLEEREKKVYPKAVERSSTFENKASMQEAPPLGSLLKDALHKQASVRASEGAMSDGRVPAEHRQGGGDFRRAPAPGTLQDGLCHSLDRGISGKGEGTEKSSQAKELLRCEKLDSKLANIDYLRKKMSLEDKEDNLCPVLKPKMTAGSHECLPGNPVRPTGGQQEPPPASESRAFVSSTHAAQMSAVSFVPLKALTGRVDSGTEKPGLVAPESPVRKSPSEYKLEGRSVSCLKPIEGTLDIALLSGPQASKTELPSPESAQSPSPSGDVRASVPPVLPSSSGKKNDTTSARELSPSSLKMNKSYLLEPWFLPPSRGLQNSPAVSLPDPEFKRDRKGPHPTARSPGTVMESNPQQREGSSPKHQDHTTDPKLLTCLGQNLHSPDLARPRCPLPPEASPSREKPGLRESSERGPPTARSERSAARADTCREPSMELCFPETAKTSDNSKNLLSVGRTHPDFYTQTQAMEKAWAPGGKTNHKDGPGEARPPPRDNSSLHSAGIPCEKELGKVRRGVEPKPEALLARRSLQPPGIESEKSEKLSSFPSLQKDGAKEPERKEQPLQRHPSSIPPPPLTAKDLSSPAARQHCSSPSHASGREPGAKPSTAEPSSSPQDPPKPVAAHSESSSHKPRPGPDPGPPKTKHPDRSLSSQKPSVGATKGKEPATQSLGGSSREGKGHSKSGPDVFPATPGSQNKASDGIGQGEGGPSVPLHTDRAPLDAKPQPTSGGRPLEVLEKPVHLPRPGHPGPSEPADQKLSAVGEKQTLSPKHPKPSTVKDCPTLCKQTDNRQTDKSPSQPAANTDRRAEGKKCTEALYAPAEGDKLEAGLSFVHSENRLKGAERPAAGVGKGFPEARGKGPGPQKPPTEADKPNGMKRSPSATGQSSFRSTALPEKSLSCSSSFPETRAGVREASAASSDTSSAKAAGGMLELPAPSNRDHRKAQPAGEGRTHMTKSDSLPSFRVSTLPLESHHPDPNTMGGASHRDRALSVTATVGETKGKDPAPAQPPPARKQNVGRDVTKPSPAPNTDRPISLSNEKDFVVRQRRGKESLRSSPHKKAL

What was measured:
Test in all cases: log2 fold change, soluble protein after heating vs DMSO (PISA); higher = thermal stabilisation; K562 cells, 10 uM, 30 min; active = over 0.2 and 3.5 SD of the protein, either way, in both replicates (recomputed)
[1] = compound: C1=CC=C(C=C1)[C@H](COC2=CC3=C(C=C2)NC(=O)N3)NC(=O)C4=CC=CN(C4=O)CC5=CC(=C(C=C5)F)F
Summary of the method: (§1)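 Quantification of soluble protein used TMTpro 16plex LC-MS/MS, with channel sums equalised. Samples were the supernatant after 21,000xg for 90 min of pooled aliquots from K562 cells (2×10^6 cells/mL) treated with 10 μM compound for 30 min, heated for 3 min over 48°C-58°C, and extracted in PBS with 0.5% NP-40 at 4°C. Values, from duplicates, describe thermal stability against control samples on a log2 fold-change scale.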

[2] = compound: CC1=C(SC2=C1C(=N[C@H](C3=NN=C(N32)C)CC(=O)N)C4=CC=C(C=C4)Cl)C
Summary of the method: as §1

[3] = compound: CC1=C2C(=CC=C1)N=C(N(C2=O)C3=CC=CC=C3C)CN4C=NC5=C(N=CN=C54)N
Summary of the method: as §1

[4] = compound: Cc1sc2c(c1C)C(c1ccc(Cl)cc1)=N[C@@H](CC(=O)OC(C)(C)C)c1nnc(C)n1-2
Summary of the method: as §1

[5] = compound: c1ccc([C@@H]2C[C@H]2NC2CCNCC2)cc1
Summary of the method: as §1

Measured: log2 fold change

MED23 (UniProt Q9ULK4)
inactive: [1] -0.054 | [2] -0.003 | [3] -0.031 | [4] 0.021 | [5] -0.006

MED30 (UniProt Q96HR3)
inactive: [1] 0.065 | [2] -0.017 | [3] 0.119 | [4] -0.039 | [5] -0.037

MFSD5 isoform 2 (UniProt Q6N075)
inactive: [1] 0.071 | [2] 0.08 | [3] 0.112 | [4] -0.049 | [5] -0.055

MDH1 isoform 3 (UniProt P40925)
inactive: [1] 0.016 | [2] 0 | [3] -0.031 | [4] -0.016 | [5] -0.007

METTL18 (UniProt O95568)
inactive: [1] 0 | [2] -0.027 | [3] 0.061 | [4] -0.055 | [5] 0.028

MBD3 (UniProt O95983)
inactive: [1] 0.015 | [2] -0.018 | [3] 0.032 | [4] -0.018 | [5] 0.057

MCCC1 (UniProt Q96RQ3)
inactive: [1] -0.103 | [2] 0.071 | [3] 0.033 | [4] 0.004 | [5] -0.018

MCU (UniProt Q8NE86)
inactive: [1] -0.02 | [2] 0.035 | [3] 0.038 | [4] -0.018 | [5] -0.013

MED1 (UniProt Q15648)
inactive: [1] -0.033 | [2] -0.009 | [3] 0.03 | [4] 0.079 | [5] 0.058

MFSD8 (UniProt Q8NHS3)
inactive: [1] -0.134 | [2] -0.033 | [3] 0.074 | [4] -0.289 | [5] 0.119

METAP2 (UniProt P50579)
inactive: [1] 0.017 | [2] 0.044 | [3] 0.007 | [4] 0.002 | [5] 0.001

MED25 isoform 3 (UniProt Q71SY5)
inactive: [1] -0.12 | [2] 0.06 | [3] -0.14 | [4] -0.128 | [5] -0.257

MFSD11 (UniProt O43934)
inactive: [1] 0.04 | [2] 0.11 | [3] 0.104 | [4] -0.03 | [5] -0.049

MED13 (UniProt Q9UHV7)
inactive: [1] -0.201 | [2] -0.144 | [3] -0.023 | [4] 0.022 | [5] 0.109

MGST1 (UniProt P10620)
inactive: [1] -0.061 | [2] 0.032 | [3] -0.11 | [4] 0.05 | [5] 0.008

MDC1 (UniProt Q14676)
inactive: [1] -0.005 | [2] -0.045 | [3] -0.092 | [4] 0.068 | [5] 0.04

2 neighbouring entries already listed, for reference:
MFSD11 (UniProt O43934)
inactive: [1] 0.04 | [2] 0.11 | [3] 0.104 | [4] -0.03 | [5] -0.049

MED13 (UniProt Q9UHV7)
inactive: [1] -0.201 | [2] -0.144 | [3] -0.023 | [4] 0.022 | [5] 0.109

Continued:

MGST3 (UniProt O14880)
inactive: [1] 0.046 | [2] 0.032 | [3] 0.005 | [4] 0.006 | [5] 0.054

MCL1 (UniProt Q07820)
inactive: [1] -0.013 | [2] 0.125 | [3] 0.135 | [4] 0.057 | [5] 0.073

METTL1 (UniProt Q9UBP6)
inactive: [1] 0.038 | [2] -0.001 | [3] -0.008 | [4] -0.013 | [5] 0.021

MAST4 (UniProt O15021)
inactive: [1] -0.081 | [2] 0.037 | [3] 0.061 | [4] -0.002 | [5] -0.041

MEAF6 isoform 3 (UniProt Q9HAF1)
inactive: [1] 0.062 | [2] -0.027 | [3] -0.033 | [4] 0.058 | [5] -0.06

MCMBP (UniProt Q9BTE3)
inactive: [1] -0.061 | [2] 0.036 | [3] 0.122 | [4] -0.048 | [5] -0.08

MCRIP1 (UniProt I3L4Q0)
inactive: [1] 0.042 | [2] 0.087 | [3] 0.04 | [4] -0.002 | [5] 0.02

MGAT5 (UniProt Q09328)
inactive: [1] -0.04 | [2] 0.041 | [3] 0 | [4] -0.045 | [5] 0.021
